# Measured values: publication PMC10541173
# These are yes or no findings as the source states them, for the method shown. Binding calls can cover weak binding; strength is not graded here. For some of these results: Sequences can lack the tags named with a protein. For some of these results: Binding seen in cells or lysates may run through a third protein.
# T1: GST-VCF2 isoform 3 (human) (UniProt Q5XKR9)
# T1 sequence: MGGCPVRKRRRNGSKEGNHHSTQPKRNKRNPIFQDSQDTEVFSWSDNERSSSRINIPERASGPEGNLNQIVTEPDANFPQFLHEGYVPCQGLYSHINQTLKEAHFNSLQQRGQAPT
# How the values were obtained:
# [1] = target: T1, GST-VCF2 isoform 3 (human); test: pull-down; 0.76 nmole GST fusion immobilised on 10 µl glutathione sepharose beads; 0.2 nmole (monomer) p97 or 0.5 nmole His6-FAF1 (or other purified p97 cofactors) in TBS, 2 mM DTT, 1% Triton X-100; SDS-PAGE with Coomassie or 2,2,2-trichloroethanol staining, FAF1 immunoblot; both purified
# [2] = target: FLAG-VCF1 isoform 5 (human); test: co-IP; anti-FLAG (M2 agarose) immunoprecipitation from lysates of HEK293T cells ectopically expressing FLAG-VCF1/2; lysis buffer 50 mM Tris-HCl pH 7.6, 150 mM NaCl, 2 mM MgCl2, 1% NP40, 10% glycerol, 1 mM DTT; overnight at 4°C; immunoblot of endogenous p97 and cofactors
binding [1],binding [2],Molecule
binds,–,p97 N domain (domain or fragment)
binds,–,p97 ND1 variant (lacking the D2 ATPase domain) (domain or fragment)
–,binds,"UBXN7, endogenous (protein, UniProt O94888 1-489) MAAHGGSAASSALKGLIQQFTTITGASESVGKHMLEACNNNLEMAVTMFLDGGGIAEEPSTSSASVSTVRPHTEEEVRAPIPQKQEILVEPEPLFGAPKRRRPARSIFDGFRDFQTETIRQEQELRNGGAIDKKLTTLADLFRPPIDLMHKGSFETAKECGQMQNKWLMINIQNVQDFACQCLNRDVWSNEAVKNIIREHFIFWQVYHDSEEGQRYIQFYKLGDFPYVSILDPRTGQKLVEWHQLDVSSFLDQVTGFLGEHGQLDGLSSSPPKKCARSESLIDASEDSQLEAAIRASLQETHFDSTQTKQDSRSDEESESELFSGSEEFISVCGSDEEEEVENLAKSRKSPHKDLGHRKEENRRPLTEPPVRTDPGTATNHQGLPAVDSEILEMPPEKADGVVEGIDVNGPKAQLMLRYPDGKREQITLPEQAKLLALVKHVQSKGYPNERFELLTNFPRRKLSHLDYDITLQEAGLCPQETVFVQERN"

Molecule,binding [1],binding [2]
p97 ΔN variant (lacking the N domain) (domain or fragment),no binding (tested: 0.2 nmole (monomer) p97),–
